Assay results: the supplement of paper PMC7666118
Some of the results follow.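 Rule for the calls: active = dose-dependent thermal stabilisation significant by F-test of dose-response against flat model at 10% FDR; inactive = not significant.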

Amino acid sequences for entries named in this document (tags omitted). A change or cut given only in a name is not applied to a line headed by its entry.
UniProt Q9Y4K4: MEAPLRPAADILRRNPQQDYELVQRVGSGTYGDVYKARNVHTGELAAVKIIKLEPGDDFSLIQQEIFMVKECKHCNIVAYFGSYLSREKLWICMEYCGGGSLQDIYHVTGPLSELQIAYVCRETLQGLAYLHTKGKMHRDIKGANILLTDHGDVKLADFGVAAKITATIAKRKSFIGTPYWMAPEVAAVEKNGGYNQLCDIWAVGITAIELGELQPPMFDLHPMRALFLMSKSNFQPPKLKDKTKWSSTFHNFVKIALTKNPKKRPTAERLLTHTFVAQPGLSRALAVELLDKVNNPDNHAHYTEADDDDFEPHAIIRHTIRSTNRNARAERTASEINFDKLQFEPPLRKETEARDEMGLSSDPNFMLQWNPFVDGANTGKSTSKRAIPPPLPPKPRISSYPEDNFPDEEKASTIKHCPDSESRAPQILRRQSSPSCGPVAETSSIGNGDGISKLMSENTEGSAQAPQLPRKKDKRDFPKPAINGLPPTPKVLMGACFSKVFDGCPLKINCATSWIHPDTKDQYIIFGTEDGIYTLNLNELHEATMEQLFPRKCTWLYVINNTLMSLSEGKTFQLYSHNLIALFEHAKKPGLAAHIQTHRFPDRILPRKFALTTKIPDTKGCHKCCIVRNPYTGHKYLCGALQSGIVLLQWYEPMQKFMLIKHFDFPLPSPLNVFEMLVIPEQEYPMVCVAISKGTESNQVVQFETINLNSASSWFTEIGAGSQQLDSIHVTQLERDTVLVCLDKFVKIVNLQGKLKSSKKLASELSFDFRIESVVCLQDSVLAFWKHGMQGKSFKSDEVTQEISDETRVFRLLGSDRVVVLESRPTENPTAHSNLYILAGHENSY
UniProt Q92614: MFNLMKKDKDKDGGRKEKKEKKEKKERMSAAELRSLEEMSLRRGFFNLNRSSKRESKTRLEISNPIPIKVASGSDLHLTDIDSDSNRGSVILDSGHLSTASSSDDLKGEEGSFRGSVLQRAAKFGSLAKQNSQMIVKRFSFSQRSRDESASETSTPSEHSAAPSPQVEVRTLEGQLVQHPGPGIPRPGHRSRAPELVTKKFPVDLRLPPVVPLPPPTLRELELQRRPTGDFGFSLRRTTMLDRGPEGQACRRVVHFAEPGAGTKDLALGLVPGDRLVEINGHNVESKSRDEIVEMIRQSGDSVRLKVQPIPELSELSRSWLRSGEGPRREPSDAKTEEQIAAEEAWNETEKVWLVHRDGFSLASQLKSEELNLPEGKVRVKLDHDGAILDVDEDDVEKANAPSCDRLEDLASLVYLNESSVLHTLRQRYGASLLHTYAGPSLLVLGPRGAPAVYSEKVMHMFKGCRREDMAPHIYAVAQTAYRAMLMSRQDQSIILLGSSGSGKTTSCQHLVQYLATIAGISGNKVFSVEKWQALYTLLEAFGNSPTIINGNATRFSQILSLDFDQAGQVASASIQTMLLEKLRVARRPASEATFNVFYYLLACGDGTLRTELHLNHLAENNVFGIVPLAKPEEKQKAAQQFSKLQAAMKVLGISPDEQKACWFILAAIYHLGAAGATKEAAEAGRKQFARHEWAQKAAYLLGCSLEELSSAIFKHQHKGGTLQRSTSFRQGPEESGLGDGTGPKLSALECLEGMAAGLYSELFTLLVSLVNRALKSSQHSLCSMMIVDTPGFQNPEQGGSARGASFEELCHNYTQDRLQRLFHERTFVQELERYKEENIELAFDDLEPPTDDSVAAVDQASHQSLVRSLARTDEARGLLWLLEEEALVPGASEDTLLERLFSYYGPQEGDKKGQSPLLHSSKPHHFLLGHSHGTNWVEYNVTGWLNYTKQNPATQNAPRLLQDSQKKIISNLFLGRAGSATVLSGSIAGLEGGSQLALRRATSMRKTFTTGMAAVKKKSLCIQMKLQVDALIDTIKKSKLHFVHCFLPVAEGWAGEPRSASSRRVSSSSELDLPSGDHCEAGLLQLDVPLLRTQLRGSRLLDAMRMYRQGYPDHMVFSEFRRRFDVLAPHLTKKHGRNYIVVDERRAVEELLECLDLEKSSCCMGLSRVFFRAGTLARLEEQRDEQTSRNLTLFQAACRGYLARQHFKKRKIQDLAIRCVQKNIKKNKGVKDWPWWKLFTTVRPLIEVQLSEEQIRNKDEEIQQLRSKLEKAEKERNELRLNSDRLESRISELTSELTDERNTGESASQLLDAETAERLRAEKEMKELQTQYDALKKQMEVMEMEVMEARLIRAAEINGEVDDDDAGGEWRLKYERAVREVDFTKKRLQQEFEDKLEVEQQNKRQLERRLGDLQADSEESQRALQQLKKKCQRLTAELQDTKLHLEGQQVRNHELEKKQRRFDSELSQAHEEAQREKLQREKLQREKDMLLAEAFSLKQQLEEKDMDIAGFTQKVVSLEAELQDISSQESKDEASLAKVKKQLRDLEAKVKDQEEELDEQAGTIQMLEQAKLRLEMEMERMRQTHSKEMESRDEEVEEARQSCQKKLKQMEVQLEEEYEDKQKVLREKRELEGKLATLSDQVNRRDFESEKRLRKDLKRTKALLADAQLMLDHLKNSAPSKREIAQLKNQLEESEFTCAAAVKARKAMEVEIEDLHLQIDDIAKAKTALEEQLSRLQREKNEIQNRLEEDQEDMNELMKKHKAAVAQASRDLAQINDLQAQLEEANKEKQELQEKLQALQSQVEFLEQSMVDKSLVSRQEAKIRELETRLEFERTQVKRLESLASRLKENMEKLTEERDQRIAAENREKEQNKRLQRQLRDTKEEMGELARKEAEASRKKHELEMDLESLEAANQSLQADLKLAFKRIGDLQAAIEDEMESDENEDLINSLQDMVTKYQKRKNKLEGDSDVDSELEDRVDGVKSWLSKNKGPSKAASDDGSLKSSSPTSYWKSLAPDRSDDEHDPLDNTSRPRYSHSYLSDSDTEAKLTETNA
UniProt Q8TCA0: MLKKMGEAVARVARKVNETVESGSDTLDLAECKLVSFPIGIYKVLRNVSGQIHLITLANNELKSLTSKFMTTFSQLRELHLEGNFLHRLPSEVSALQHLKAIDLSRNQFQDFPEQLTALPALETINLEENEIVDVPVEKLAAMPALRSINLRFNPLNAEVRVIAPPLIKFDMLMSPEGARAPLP
UniProt O95777: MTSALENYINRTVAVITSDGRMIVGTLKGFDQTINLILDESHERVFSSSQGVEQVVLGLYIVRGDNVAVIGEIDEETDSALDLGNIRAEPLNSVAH
UniProt Q5VZF2: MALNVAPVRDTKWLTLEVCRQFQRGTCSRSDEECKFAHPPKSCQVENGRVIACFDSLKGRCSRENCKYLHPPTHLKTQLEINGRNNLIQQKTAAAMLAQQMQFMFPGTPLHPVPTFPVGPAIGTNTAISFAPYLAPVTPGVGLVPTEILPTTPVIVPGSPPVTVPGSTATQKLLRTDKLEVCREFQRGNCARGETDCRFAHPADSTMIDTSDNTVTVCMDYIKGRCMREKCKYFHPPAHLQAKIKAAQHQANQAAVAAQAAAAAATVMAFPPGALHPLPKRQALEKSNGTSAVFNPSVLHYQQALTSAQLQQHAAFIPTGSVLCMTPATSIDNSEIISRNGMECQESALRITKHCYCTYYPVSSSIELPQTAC
UniProt Q13496: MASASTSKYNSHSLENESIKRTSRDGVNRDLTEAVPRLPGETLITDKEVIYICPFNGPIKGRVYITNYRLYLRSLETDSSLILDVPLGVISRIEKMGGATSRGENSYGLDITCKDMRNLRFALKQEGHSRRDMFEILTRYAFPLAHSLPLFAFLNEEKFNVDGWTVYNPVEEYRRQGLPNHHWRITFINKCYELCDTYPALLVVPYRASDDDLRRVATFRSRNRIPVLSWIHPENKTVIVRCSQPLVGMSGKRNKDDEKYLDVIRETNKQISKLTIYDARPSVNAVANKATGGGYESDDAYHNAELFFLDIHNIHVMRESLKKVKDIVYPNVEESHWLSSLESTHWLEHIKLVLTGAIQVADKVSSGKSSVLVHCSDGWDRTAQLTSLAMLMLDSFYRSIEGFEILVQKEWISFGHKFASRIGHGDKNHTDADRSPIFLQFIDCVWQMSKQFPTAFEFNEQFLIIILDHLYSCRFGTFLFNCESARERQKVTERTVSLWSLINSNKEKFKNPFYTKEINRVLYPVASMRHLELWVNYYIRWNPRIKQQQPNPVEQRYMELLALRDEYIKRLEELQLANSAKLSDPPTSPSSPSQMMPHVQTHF
UniProt P51608, whole entry: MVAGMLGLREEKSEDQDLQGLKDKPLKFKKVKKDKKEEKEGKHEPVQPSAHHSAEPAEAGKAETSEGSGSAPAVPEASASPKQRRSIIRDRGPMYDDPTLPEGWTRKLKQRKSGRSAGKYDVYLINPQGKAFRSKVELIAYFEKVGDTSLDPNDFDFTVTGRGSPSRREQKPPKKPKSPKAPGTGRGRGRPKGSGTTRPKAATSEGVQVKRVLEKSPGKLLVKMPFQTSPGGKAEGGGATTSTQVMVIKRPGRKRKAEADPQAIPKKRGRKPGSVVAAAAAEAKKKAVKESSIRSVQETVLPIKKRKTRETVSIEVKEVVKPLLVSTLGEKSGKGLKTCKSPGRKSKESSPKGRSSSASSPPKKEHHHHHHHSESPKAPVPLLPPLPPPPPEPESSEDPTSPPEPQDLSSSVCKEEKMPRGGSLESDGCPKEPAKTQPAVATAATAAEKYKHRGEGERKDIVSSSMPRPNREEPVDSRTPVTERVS
UniProt O75448: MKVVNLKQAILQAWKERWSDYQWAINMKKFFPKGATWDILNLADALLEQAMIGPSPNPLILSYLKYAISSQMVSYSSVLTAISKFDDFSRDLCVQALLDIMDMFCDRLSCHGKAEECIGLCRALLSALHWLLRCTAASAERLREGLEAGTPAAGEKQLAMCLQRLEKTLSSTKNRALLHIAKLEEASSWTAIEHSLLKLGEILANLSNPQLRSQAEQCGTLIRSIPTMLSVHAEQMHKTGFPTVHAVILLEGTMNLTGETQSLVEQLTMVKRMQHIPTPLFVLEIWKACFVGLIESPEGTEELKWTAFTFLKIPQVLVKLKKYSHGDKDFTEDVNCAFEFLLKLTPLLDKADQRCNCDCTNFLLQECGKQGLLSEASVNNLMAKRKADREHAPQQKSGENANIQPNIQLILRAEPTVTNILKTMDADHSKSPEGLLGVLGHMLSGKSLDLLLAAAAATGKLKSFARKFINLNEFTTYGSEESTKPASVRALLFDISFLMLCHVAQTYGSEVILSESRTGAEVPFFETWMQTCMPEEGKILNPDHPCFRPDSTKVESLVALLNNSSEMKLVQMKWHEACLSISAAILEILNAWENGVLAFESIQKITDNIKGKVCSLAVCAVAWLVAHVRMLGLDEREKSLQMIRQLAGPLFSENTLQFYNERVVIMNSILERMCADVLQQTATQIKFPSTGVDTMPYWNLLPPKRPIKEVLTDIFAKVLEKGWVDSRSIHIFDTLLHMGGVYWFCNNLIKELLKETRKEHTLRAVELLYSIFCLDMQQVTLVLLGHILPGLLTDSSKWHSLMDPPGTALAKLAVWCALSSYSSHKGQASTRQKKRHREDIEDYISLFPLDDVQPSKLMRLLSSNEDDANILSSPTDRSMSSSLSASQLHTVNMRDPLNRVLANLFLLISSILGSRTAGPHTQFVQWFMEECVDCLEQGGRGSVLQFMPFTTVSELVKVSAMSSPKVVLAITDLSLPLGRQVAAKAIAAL
UniProt Q9NZB8: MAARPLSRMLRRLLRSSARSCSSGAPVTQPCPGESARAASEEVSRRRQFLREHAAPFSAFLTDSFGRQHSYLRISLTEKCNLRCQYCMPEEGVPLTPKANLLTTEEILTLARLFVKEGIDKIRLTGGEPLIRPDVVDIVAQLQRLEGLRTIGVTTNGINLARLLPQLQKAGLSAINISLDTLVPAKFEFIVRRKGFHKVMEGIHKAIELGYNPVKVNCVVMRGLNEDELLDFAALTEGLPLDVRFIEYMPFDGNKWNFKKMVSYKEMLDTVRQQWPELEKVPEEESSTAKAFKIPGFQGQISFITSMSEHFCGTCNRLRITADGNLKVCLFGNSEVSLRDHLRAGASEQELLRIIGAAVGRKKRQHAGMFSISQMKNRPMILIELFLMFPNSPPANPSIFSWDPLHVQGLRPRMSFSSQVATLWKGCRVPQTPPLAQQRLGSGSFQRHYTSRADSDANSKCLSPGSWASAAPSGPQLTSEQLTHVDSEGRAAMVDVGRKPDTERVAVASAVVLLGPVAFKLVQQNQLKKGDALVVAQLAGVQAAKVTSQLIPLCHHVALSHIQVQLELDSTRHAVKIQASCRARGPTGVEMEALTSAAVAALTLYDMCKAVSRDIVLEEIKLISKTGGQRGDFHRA

The targets below were run with Nc1nc2c(ncn2[C@@H]2O[C@H](COP(=O)(O)OP(=O)(O)OP(=O)(O)O)[C@@H](O)[C@H]2O)c(=O)[nH]1 (assay: dose-dependent thermal stabilisation call (2D-TPP, DLPTP, 10% FDR) (binary (1 = stabilised)); higher = stabilised by the compound). Conditions: system: Jurkat gel-filtered lysate; concentration range 1-500 µM.

dose-dependent thermal stabilisation call, active:
MRTO4 (UniProt Q9UKD2) 1, MVK (UniProt Q03426) 1, MITD1 (UniProt Q8WV92) 1, MAP4K5 (UniProt Q9Y4K4) 1, MYO18A (UniProt Q92614) 1, MTMR9 (UniProt Q96QG7) 1

dose-dependent thermal stabilisation call, inactive:
MRPS31 (UniProt Q92665) 0, LSM3 (UniProt P62310) 0, MRFAP1 (UniProt Q9Y605) 0, MYO9B (UniProt Q13459) 0, LRRC20 (UniProt Q8TCA0) 0, MLLT10 (UniProt P55197) 0, MSI2 (UniProt Q96DH6) 0, METTL16 (UniProt Q86W50) 0, MYH9 (UniProt P35579) 0, MAZ (UniProt P56270) 0, MED13L (UniProt Q71F56) 0, LSM8 (UniProt O95777) 0, LTA4H (UniProt P09960) 0, LTF (UniProt P02788) 0, MSN (UniProt P26038) 0, MYCBP2 (UniProt O75592) 0, MBNL2 (UniProt Q5VZF2) 0, MICAL1 (UniProt Q8TDZ2) 0, MEF2D (UniProt Q14814) 0, MTM1 (UniProt Q13496) 0, MAPRE2 (UniProt Q15555) 0, MORF4L1 (UniProt Q9UBU8) 0, MDP1 (UniProt Q86V88) 0, METTL18 (UniProt O95568) 0, MECP2 (UniProt P51608) 0, MAP1LC3B2 (UniProt A6NCE7) 0, MSRB1 (UniProt Q9NZV6) 0, MED24 (UniProt O75448) 0, MBP (UniProt P02686) 0, MOCS1 (UniProt Q9NZB8) 0
